Reference: PubChem BioAssay AID248 (DTP/NCI, 2004)
The list shows only some results of the screen, not a fair sample: it is rich in T/C values a quarter to a half above the control, in often repeated tests (any T/C) and in doses without a T/C. Further doses and runs are listed elsewhere. T/C gives the treated animals as a percentage of the vehicle group. Some doses have a count of surviving animals in place of a T/C: the source files T/C as zero there, which appears to mark a toxic dose or a test without result, not a measured value. Some doses without a T/C left all or most animals alive at the check, yet need not have been tolerated: the source hardly ever lists a survival T/C far under the control, and the zero likely stands for such cases as well. Counts of survivors are from the toxicity check (mostly the fifth day) where no day follows; animals may have died later. Schedules are NCI's codes, read here as Q, the interval in days (D) or hours (H), X, the number of doses. Some doses were run more than once; the results are listed from low to high. Some schedules carry Z or #; the key to these is not given.

Tested on: L1210 leukemia ip in BDF1 mice, survival T/C
Test: NCI In Vivo Anticancer Drug Screen. Data for tumor model L1210 Leukemia (intraperitoneal) in B6D2F1 (BDF1) mice
Details: T/C endpoint: mean survival time, higher T/C = longer survival
[1] = dose: 100.0 mg/kg/injection, schedule: Q01DX009 (ip), vehicle: Klucel (hydroxypropylcellulose) (HPC)
[2] = dose: 400.0 mg/kg/injection, schedule: Q04DX003 (ip), vehicle: Klucel (hydroxypropylcellulose) (HPC)
[3] = dose: 100.0 mg/kg/injection, schedule: Q01DX009 (ip), vehicle: saline
[4] = dose: 200.0 mg/kg/injection, schedule: Q01DX009 (ip), vehicle: saline
[5] = dose: 400.0 mg/kg/injection, schedule: Q01DX009 (ip), vehicle: saline

## CCCCOC(=O)CCl
dose: 400.0 mg/kg/injection, schedule: Q04DX002 (ip), vehicle: saline with Tween-80
  survivor count: 1 of 3

## CCC[CH2][Sn](=[O])[CH2]CCC
dose: 12.5 mg/kg/injection, schedule: Q01DX001 (ip), vehicle: saline with Tween-80
  survivor count: 0 of 3
dose: 25.0 mg/kg/injection, schedule: Q01DX001 (ip), vehicle: saline with Tween-80
  survivor count: 1 of 3
dose: 50.0 mg/kg/injection, schedule: Q01DX001 (ip), vehicle: saline with Tween-80
  survivor count: 1 of 3
dose: 100.0 mg/kg/injection, schedule: Q01DX001 (ip), vehicle: saline with Tween-80
  survivor count: 0 of 3
dose: 200.0 mg/kg/injection, schedule: Q01DX001 (ip), vehicle: saline with Tween-80
  survivor count: 0 of 3
dose: 400.0 mg/kg/injection, schedule: Q01DX001 (ip), vehicle: saline with Tween-80
  survivor count: 0 of 3

## CC(C)C[CH2][Pb]([CH2]CC(C)C)([CH2]CC(C)C)[O]C(=O)C(Cl)(Cl)Cl
dose: 12.5 mg/kg/injection, schedule: Q01DX009 (ip), vehicle: Klucel (hydroxypropylcellulose) (HPC)
  survivor count: 2 of 6
dose: 18.0 mg/kg/injection, schedule: Q01DX009 (ip), vehicle: Klucel (hydroxypropylcellulose) (HPC)
  survivor count: 0 of 6
dose: 25.0 mg/kg/injection, schedule: Q04DX002 (ip), vehicle: Klucel (hydroxypropylcellulose) (HPC)
  survivor count: 3 of 3
dose: 28.0 mg/kg/injection, schedule: Q01DX009 (ip), vehicle: Klucel (hydroxypropylcellulose) (HPC)
  survivor count: 0 of 6
dose: 40.0 mg/kg/injection, schedule: Q01DX009 (ip), vehicle: Klucel (hydroxypropylcellulose) (HPC)
  survivor count: 0 of 6
dose: 50.0 mg/kg/injection, schedule: Q04DX002 (ip), vehicle: Klucel (hydroxypropylcellulose) (HPC)
  survivor count: 0 of 3
dose: 100.0 mg/kg/injection, schedule: Q04DX002 (ip), vehicle: Klucel (hydroxypropylcellulose) (HPC)
  survivor count: 0 of 3
dose: 200.0 mg/kg/injection, schedule: Q04DX002 (ip), vehicle: Klucel (hydroxypropylcellulose) (HPC)
  survivor count: 0 of 3
dose: 400.0 mg/kg/injection, schedule: Q04DX002 (ip), vehicle: Klucel (hydroxypropylcellulose) (HPC)
  survivor count: 0 of 3

## CC(C)(Cc1ccc(F)cc1)NCc1ccccc1
[1]
  survivor count: 5 of 6
dose: 200.0 mg/kg/injection, schedule: Q04DX003 (ip), vehicle: Klucel (hydroxypropylcellulose) (HPC)
  survivor count: 3 of 6
[2]
  survivor count: 0 of 6

## CN(C)Cc1ncccc1OC(=O)N(c1ccccc1)c1ccccc1
[3]
  survivor count: 0 of 6
[4]
  survivor count: 0 of 6
[5]
  survivor count: 0 of 6

## C[N+](C)(C)CCOC(=O)CCC(=O)OCC[N+](C)(C)C
dose: 6.25 mg/kg/injection, schedule: Q01DX009 (ip), vehicle: saline
  survivor count: 0 of 3
dose: 12.5 mg/kg/injection, schedule: Q01DX009 (ip), vehicle: saline
  survivor count: 0 of 3
dose: 25.0 mg/kg/injection, schedule: Q01DX009 (ip), vehicle: saline
  survivor count: 0 of 3
dose: 50.0 mg/kg/injection, schedule: Q01DX009 (ip), vehicle: saline
  survivor count: 0 of 3
[3]
  survivor count: 0 of 3 and 0 of 6
[4]
  survivor count: 0 of 6
[5]
  survivor count: 0 of 6

## O=[N+]([O-])c1cc([N+](=O)[O-])c(Cl)cc1Cl
dose: 25.0 mg/kg/injection, schedule: Q01DX009 (ip), vehicle: Klucel (hydroxypropylcellulose) (HPC)
  survivor count: 2 of 6
dose: 50.0 mg/kg/injection, schedule: Q01DX009 (ip), vehicle: Klucel (hydroxypropylcellulose) (HPC)
  survivor count: 1 of 6
[1]
  survivor count: 0 of 6
dose: 200.0 mg/kg/injection, schedule: Q01DX009 (ip), vehicle: Klucel (hydroxypropylcellulose) (HPC)
  survivor count: 0 of 6
[2]
  survivor count: 5 of 6

## CCOC(=O)CNC(=O)CBr
dose: 40.0 mg/kg/injection, schedule: Q01DX Z (ip), vehicle: other
  survivor count: 2 of 6
dose: 80.0 mg/kg/injection, schedule: Q01DX Z (ip), vehicle: other
  survivor count: 0 of 6
